Where a name gives a salt, the structure may show the parent alone. The list shows a part of the results. The calls rarely recur for the same compound in another form.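 Kinases were expressed as nanoluciferase fusions in K562 cells and luminescence was read every 4 h between 2 and 18 h as percent of control, DMSO set to 100% and a positive control to 0%. A time point counts as decreased when the signal drops significantly (2 sigma). The hit call is the authors' own, does not follow from the count of time points alone, and its rule is not shown.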
The compounds below were run against MAPKAPK2 (UniProt P49137) (assay: kinase-Nluc reporter destabilization hit call (1 = scored as downregulated) (binary); higher = compound decreases kinase abundance). Conditions: 2.5 µM; K562; 2-18 h.

Sequences of proteins named here, by UniProt entry; tags and fusion partners are left off.
UniProt P49137, whole entry, looked up: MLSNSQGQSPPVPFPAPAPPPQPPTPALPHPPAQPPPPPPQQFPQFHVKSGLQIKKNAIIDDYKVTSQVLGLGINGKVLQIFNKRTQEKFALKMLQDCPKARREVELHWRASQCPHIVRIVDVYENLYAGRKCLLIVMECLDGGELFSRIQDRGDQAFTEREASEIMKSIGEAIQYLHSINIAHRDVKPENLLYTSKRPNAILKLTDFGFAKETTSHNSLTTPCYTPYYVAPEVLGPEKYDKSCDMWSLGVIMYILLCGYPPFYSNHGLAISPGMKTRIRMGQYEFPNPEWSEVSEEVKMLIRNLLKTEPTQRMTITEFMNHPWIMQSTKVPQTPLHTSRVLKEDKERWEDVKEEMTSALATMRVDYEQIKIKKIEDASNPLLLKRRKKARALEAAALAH

kinase-Nluc reporter destabilization hit call, inactive:
CN1CCCN(C(=O)c2cccc(-c3ccc(/C=C4/C(=O)Nc5ccc(Cl)cc54)o3)c2)CC1 [CX-6258 (hydrochloride)] 0, Clc1ccc(C2(c3ccc(-c4cn[nH]c4)cc3)CCNCC2)cc1 [AT7867 (dihydrochloride)] 0, CC(C)Oc1ccc(-c2nn([C@@H](C)c3oc4ccc(F)cc4c(=O)c3-c3cccc(F)c3)c3ncnc(N)c23)cc1F [Umbralisib] 0, C=CC(=O)Nc1cc(Nc2nccc(-c3cn(C)c4ccccc34)n2)c(OC)cc1N(C)CCN(C)C [Osimertinib] 0, COc1cc2c(Oc3ccc4[nH]c(C)cc4c3F)ncnc2cc1OCCCN1CCCC1 [Cediranib (maleate)] 0, CC(C)Oc1ccc(-c2nn([C@@H](C)c3oc4ccc(F)cc4c(=O)c3-c3cccc(F)c3)c3ncnc(N)c23)cc1F [Umbralisib (hydrochloride)] 0, COc1ccc(S(=O)(=O)N(CCO)c2ccccc2CN(C)C/C=C/c2ccc(Cl)cc2)cc1 [KN-93 (hydrochloride)] 0, C=CC(=O)N1CCN(c2ncnc3c(F)c(-c4c(O)cccc4F)c(Cl)cc23)CC1 0, COc1ccc(S(=O)(=O)Nc2ccccc2CN(C)C/C=C/c2ccc(Cl)cc2)cc1 [KN-92 (hydrochloride)] 0, CCN(CC)Cc1ccc(OC)c(-c2cc3c(-c4ccc(C(=O)O)c(C(C)C)c4)ccnc3[nH]2)c1 0, CN(C)C/C=C/C(=O)Nc1cc2c(Nc3ccc(F)c(Cl)c3)ncnc2cc1O[C@H]1CCOC1 [Afatinib (dimaleate)] 0, Oc1cccc(-c2nc(N3CCOCC3)c3oc4ncccc4c3n2)c1 [PI-103 (Hydrochloride)] 0, c1cc(-c2cnn3cc(-c4ccc(OCCN5CCCCC5)cc4)cnc23)ccn1 [Dorsomorphin] 0, COc1ccc(S(=O)(=O)N(CCO)c2ccccc2CN(C)C/C=C/c2ccc(Cl)cc2)cc1 [KN-93 (phosphate)] 0, Nc1ncnc2c1c(-c1ccc(Oc3ccccc3)cc1)nn2[C@@H]1CCCNC1 [IBT6A (hydrochloride)] 0

Same assay, conditions: 10 µM; K562; 2-18 h

kinase-Nluc reporter destabilization hit call, inactive:
COc1cc2nccc(Oc3ccc(NC(=O)C4(C(=O)Nc5ccc(F)cc5)CC4)cc3)c2cc1OC [Cabozantinib (S-malate)] 0, Cn1cc(-c2cnc3ccc4ccc(CS(=O)(=O)NCc5ccccn5)cc4c(=O)c3c2)cn1 [MK-8033 (hydrochloride)] 0, CNC(=O)c1ccc(Nc2ncc(C(F)(F)F)c(NCc3nccnc3N(C)S(C)(=O)=O)n2)cc1 [Defactinib] 0, N#CCNC(=O)c1ccc(-c2ccnc(Nc3ccc(N4CCOCC4)cc3)n2)cc1 [Momelotinib] 0, CC(=O)c1c(C)c2cnc(Nc3ccc(N4CCNCC4)cn3)nc2n(C2CCCC2)c1=O [Palbociclib (isethionate)] 0, Nc1cncc(-c2cn3ccnc3c(Nc3ccc(N4CCN(C5COC5)CC4)cc3)n2)n1 [Lanraplenib (succinate)] 0, C#Cc1cccc(Nc2ncnc3cc4c(cc23)OCCOCCOCCO4)c1 [Icotinib] 0, O=C(O)c1ccc2c(c1)nc(Nc1cccc(Cl)c1)c1ccncc12 [Silmitasertib (sodium salt)] 0, CC(C)Nc1cc(-c2c[nH]c(C(=O)N[C@H](CO)c3cccc(Cl)c3)c2)c(Cl)cn1 [Ulixertinib (hydrochloride)] 0, C=CC(=O)N1CCN(c2ncnc3c(F)c(-c4c(O)cccc4F)c(Cl)cc23)CC1 0, CN(C)C(=O)c1cc2cnc(Nc3ccc(N4CCNCC4)cn3)nc2n1C1CCCC1 [Ribociclib] 0, COc1cc2c(-c3cnn4cc(N5CCC(N6CCN(C)CC6)CC5)cnc34)ccnc2cc1F [ALK2-IN-4 (succinate)] 0, CCN(CC)Cc1ccc(OC)c(-c2cc3c(-c4ccc(C(=O)O)c(C(C)C)c4)ccnc3[nH]2)c1 0, O=C(c1nn(-c2ccc(CN3CCOCC3)cc2)c2c1CS(=O)(=O)c1c(F)cccc1-2)N1CCOCC1 0, CC(C)(C)n1nc(-c2cccc3ccccc23)c2c(N)ncnc21 [1-Naphthyl PP1 (hydrochloride)] 0, CCN(CC)CC(=O)Nc1c(C)cccc1C [Lidocaine (hydrochloride)] 0, Cn1ncc(Cl)c1-c1cc(C(=O)N[C@H](CN)Cc2cccc(F)c2)sc1Cl [Afuresertib (hydrochloride)] 0, COc1cc2c(cc1OC)-c1c(C)c3ccc(OC)c(OC)c3c[n+]1CC2 [Dehydrocorydaline] 0, C[C@H](CCC(=O)NCCS(=O)(=O)O)[C@H]1CC[C@H]2[C@@H]3[C@@H](O)C[C@@H]4C[C@H](O)CC[C@]4(C)[C@H]3CC[C@]12C [Tauroursodeoxycholate (dihydrate)] 0, OCCn1cc(-c2cnc3nnn(Cc4ccc5ncccc5c4)c3n2)cn1 0, C[S+]([O-])c1ccc(-c2nc(-c3ccc(F)cc3)c(-c3ccncc3)[nH]2)cc1 (configuration not stated) 0, CC(C)(C)n1nc(-c2cccc3ccccc23)c2c(N)ncnc21 [1-Naphthyl PP1] 0
